Results published in paper PMC9114320.
No constants are given. Whether binding was seen depends on the method and setting. Some results given as binding are weak or reduced against the parent protein; the word gives no strength.

Chains of the proteins cited; added tags and fusions are not shown.
UniProt K4LM89: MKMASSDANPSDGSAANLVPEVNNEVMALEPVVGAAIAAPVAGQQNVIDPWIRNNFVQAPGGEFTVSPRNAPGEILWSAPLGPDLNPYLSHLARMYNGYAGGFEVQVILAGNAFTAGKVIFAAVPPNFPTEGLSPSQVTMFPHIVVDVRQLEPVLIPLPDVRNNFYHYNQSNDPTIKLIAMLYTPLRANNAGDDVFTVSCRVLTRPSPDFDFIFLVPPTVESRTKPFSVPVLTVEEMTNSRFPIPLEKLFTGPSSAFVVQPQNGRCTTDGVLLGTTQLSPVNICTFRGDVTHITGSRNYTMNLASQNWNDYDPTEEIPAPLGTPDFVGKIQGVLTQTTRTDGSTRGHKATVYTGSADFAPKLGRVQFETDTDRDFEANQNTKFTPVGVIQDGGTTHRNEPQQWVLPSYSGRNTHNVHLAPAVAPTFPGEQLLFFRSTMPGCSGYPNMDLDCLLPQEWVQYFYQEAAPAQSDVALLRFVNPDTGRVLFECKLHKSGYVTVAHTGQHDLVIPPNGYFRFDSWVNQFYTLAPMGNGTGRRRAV

Key:
[1] = biological target: Norovirus GII.4 (Sydney2012) capsid protein VP1, assembled as virus-like particles (human norovirus GII.4 (Sydney2012)) (UniProt K4LM89); assay: dynamic light scattering; untreated purified VLPs (1 mg/ml), diluted in 1 ml distilled water, intensity measurements at 25 °C; assembly of VP1 into particles; both purified
[2] = biological target: Norovirus GII.4 (Sydney2012) capsid protein VP1, assembled as virus-like particles (human norovirus GII.4 (Sydney2012)) (UniProt K4LM89); assay: negative stain electron microscopy; untreated purified VLPs (1 mg/ml), diluted 1:40 in distilled water, carbon coated grids, 0.75% uranyl acetate; assembly of VP1 into particles; both purified

For “Norovirus GII.4 (Sydney2012) capsid protein VP1, assembled as virus-like particles (from UniProt K4LM89 1-540)”, which binding [1] is on record?
Its binding is “binds”.

What about the binding [2] of the same substance?
Its binding is “binds”.
